The source of these data is paper PMC8640933.

These are yes or no findings as the source states them, for the method shown. In cells and extracts the contact can be indirect. Some results given as binding are weak or reduced against the parent protein; the word gives no strength. Where a sequence is shown, tags or fusion partners need not be part of it.

The target of the assay is T1, CENP-T^Cnp20-TAP (Schizosaccharomyces pombe) (UniProt Q9HGK9).
T1 sequence: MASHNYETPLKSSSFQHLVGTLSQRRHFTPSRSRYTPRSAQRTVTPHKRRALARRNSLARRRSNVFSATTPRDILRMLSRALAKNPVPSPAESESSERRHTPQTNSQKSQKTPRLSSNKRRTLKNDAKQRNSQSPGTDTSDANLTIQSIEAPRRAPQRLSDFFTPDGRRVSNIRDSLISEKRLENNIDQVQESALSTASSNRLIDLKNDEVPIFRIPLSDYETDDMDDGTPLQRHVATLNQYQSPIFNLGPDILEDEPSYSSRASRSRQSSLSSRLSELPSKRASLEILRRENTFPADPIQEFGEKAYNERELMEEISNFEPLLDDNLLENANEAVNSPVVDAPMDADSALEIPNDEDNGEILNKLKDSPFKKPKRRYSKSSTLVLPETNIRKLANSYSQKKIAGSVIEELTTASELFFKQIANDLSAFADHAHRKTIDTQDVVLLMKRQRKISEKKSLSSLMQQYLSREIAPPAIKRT
The assay is described as follows: co-IP; lysates of S. pombe cells expressing Ndc80-GFP and TAP-tagged Cnp20 or its CIM mutants, synchronized at metaphase (nda3-KM311) / in mitosis or unsynchronized (predominantly G2), immunoprecipitated with an antibody specific for TAP, Western blot with a GFP antibody; conditions of SI Fig. S18 not shown. For orientation: In western blotting, separated proteins are transferred to a membrane and probed.

B1: Ndc80-GFP (protein, UniProt Q10198 1-624)
chain: MQDSSSYARRYSQAPSSSNLRTTTFGFNGLGTSRTSLAPQRTLVNARQSIDPDGLSSRVLTPTMRPSLAPNTRRSSVRVSNASFISQTPNITSIKDPRPLSDRRYQQECATQVVNYLLESGFSQPLGLNNRFMPSTREFAAIFKHLYNKLDPNFRFGARYEEDVTTCLKALNYPFLDSISRSRLVAIGSPHVWPAILGMLHWVVSLIQCTEKAVAMVYTVEQNSLDDHLVDKVLFDYLVRTYHLYLDESPEESEPEKELKATFNQQNQDLYNQTEALKSTNEELINQIKSAEELDSAIQVLEERYRTMQRDEVKFQSAMSGMKSKMESRTNLMKQLQVNIEEKESQLQLLKEKRDSLKYQVENQDISISEFEKMVSEREQLDRNLNMIGSKISELRKEVFDTDLLIQASIDSLEKKVQKFNSLAYRIGIVPIAAIRSANNDFELEINPEGPNYINLDLKNKVRPFINEVRRSITLEFHEEQNKSLKLQEHVDTVNDLIAELQDELRGIESRLTSVLSECNMLRETASEEKNAFDAESDKLERELQQLKLSSHNSMLQLDQRIQSINIEADQIAHACMEYKNNIYKEVAFVLGEIIHFKLHVQDSLEDLKMDYQKELDDLSRSEL
As to B1, the binding result is “binds”.
